Data published in the M2OR odorant receptor database.
Where a chain is given by its changes, count along the chain named. The list shows a part of the results, in another mix than the full data. The calls were merged from several studies; some rest on single wells. This is one part of the list.

Chains of the proteins cited; added tags and fusions are not shown. Lines headed by an entry give the natural chain unless they say otherwise; changes in a name come on top. A line that says so, or that is headed by a name, gives the form on record, which may keep a tag or linker.
UniProt Q8NH94: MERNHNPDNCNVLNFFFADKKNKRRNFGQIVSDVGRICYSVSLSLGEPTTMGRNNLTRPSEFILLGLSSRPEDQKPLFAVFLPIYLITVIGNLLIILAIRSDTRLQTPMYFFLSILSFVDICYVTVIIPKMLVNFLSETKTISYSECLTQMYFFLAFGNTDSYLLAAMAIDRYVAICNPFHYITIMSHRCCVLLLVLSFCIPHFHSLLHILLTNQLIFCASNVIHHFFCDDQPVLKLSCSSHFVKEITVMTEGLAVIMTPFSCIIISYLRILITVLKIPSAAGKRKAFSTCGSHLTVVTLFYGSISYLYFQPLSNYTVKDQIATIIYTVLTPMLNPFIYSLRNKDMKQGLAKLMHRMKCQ
OR1E2, as listed by the source: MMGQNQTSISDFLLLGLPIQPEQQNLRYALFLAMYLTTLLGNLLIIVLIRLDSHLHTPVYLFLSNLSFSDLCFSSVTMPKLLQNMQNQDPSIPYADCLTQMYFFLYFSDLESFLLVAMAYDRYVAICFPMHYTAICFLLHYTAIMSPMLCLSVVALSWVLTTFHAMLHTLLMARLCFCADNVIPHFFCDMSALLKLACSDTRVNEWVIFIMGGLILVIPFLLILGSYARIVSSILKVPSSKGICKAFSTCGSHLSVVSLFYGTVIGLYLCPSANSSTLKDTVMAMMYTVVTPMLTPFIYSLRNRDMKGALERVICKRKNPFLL

Assays:
Conditions in all cases: stereoisomer not certain
OR1D5 (Homo sapiens) = molecular target: T1, OR1D5 (Homo sapiens) (UniProt P58170)
T1 sequence (whole entry): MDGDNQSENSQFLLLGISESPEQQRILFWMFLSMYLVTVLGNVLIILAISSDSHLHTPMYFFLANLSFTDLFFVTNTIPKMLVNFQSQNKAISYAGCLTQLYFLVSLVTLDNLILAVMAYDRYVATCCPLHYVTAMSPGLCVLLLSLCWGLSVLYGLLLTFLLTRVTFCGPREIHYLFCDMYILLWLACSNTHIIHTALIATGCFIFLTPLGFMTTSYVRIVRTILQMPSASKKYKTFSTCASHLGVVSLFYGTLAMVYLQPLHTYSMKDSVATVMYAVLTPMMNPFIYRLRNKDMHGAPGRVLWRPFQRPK
Outline: (§1)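 Values were gathered from published papers (main text and supplementary material), with extra details requested from the original authors when needed, and checked for typos and inconsistencies. Each receptor–molecule pair is called responsive (active) if the original authors judged the measured signal statistically different from baseline, and non-responsive (inactive) otherwise. Assay methods varied by source, often transient mammalian cell-line luciferase assays. Recorded details include cell line, G-protein, co-transfected protein and tags.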

OR1D5 = test system: T2, OR1D5
T2 sequence (whole entry): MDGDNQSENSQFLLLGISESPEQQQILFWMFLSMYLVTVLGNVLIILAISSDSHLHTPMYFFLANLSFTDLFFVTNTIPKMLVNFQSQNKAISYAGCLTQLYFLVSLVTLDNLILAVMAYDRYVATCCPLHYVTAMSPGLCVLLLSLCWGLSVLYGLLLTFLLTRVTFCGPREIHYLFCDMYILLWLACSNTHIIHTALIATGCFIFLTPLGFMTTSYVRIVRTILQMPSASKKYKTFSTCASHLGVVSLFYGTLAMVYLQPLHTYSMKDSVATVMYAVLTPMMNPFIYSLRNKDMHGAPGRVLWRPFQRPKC
Outline: as §1

OR1E1 [1] = test system: T3, OR1E1
T3 sequence (whole entry): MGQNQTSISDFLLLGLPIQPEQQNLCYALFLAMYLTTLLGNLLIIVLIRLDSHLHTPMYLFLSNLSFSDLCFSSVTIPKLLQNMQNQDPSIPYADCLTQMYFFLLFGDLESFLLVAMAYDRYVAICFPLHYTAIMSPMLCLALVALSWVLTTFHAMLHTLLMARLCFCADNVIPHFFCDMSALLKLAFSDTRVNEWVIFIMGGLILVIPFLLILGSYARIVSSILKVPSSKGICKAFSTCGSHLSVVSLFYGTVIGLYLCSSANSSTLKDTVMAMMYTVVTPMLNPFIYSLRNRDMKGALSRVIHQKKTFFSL
Outline: as §1

OR1E1 [2] = test system: T4, OR1E1; remark: listed apart in the source
T4 sequence (whole entry): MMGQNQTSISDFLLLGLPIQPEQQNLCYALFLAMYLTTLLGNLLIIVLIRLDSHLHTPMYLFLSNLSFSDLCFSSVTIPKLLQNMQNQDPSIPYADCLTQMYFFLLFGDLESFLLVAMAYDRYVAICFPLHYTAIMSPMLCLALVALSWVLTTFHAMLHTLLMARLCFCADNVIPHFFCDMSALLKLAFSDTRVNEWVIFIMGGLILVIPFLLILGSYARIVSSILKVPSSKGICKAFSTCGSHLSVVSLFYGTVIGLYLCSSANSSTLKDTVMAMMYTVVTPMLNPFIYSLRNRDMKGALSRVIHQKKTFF
Outline: as §1

OR1E2 (Homo sapiens) = molecular target: T5, OR1E2 (Homo sapiens) (UniProt P47887)
T5 sequence (whole entry): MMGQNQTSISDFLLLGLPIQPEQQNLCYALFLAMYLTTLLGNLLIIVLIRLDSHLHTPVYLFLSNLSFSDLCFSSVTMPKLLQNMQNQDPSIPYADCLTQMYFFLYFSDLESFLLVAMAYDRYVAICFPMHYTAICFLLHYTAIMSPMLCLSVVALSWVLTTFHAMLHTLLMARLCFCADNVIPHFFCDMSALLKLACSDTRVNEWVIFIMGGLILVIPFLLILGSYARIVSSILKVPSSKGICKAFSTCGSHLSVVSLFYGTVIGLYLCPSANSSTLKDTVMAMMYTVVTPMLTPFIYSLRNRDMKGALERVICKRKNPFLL
Outline: as §1

OR1E2 = test system: T6, OR1E2
T6 sequence (whole entry): T5 sequence (whole entry) with C27R
Outline: as §1

OR1F1 = test system: T7, OR1F1
T7 sequence (whole entry): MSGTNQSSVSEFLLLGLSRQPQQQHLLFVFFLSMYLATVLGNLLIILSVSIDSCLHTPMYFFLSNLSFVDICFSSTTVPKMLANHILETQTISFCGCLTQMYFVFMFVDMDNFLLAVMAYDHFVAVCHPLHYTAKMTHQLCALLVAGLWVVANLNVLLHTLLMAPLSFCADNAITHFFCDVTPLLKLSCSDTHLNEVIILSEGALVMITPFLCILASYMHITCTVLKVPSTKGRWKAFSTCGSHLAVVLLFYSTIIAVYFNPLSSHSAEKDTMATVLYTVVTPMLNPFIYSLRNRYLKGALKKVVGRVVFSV
Outline: as §1

OR1FC = test system: T8, OR1FC
T8 sequence (whole entry): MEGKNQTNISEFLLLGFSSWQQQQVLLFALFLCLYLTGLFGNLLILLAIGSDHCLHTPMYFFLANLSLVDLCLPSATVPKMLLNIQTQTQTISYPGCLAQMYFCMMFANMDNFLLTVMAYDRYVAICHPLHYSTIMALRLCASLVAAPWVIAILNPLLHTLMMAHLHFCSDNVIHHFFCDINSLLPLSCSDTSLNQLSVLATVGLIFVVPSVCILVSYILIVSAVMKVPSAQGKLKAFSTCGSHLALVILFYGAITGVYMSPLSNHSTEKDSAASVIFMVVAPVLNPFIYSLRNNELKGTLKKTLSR
Outline: as §1

OR1G1 (Homo sapiens) = molecular target: T9, OR1G1 (Homo sapiens) (UniProt P47890)
T9 sequence (whole entry): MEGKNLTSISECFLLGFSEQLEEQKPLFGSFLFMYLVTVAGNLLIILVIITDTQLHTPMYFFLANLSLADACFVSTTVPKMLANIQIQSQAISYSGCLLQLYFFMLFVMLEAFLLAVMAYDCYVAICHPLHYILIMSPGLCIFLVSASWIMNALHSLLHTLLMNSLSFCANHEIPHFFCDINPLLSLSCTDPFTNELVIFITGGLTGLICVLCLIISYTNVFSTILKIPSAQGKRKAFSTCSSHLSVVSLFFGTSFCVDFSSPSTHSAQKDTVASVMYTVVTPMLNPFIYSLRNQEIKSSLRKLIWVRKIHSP
Outline: as §1

OR1I1 = test system: T10, OR1I1
T10 sequence (whole entry): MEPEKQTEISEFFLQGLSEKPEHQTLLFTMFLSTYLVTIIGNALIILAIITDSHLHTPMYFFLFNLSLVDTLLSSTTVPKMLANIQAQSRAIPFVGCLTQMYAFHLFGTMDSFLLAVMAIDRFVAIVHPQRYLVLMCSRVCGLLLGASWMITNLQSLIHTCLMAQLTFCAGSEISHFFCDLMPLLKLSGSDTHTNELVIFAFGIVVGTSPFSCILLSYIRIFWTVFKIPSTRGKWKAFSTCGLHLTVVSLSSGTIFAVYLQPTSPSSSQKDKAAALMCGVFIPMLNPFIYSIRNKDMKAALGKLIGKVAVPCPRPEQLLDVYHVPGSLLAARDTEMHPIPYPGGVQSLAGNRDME
Outline: as §1

OR1J1 (Homo sapiens) = molecular target: T11, OR1J1 (Homo sapiens) (UniProt Q8NGS3)
T11 sequence (whole entry): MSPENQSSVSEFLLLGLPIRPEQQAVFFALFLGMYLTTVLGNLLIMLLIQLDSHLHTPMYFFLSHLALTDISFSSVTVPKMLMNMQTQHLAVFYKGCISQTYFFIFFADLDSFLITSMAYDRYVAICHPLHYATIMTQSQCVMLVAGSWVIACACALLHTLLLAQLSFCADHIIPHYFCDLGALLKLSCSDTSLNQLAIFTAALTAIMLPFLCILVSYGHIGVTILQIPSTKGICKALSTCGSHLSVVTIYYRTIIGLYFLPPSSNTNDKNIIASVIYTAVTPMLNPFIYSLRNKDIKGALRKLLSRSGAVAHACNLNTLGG
Outline: as §1

OR1J2 (Homo sapiens) = molecular target: T12, OR1J2 (Homo sapiens) (UniProt Q8NGS2)
T12 sequence (whole entry): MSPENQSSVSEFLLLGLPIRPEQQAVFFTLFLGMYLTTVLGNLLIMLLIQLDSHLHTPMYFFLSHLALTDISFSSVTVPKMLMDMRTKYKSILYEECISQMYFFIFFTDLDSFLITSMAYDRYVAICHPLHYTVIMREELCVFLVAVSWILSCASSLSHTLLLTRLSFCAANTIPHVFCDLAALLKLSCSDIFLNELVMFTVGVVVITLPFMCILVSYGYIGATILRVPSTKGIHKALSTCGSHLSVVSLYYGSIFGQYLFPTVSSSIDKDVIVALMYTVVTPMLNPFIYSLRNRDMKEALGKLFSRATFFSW
Outline: as §1

OR1J4 (Homo sapiens) = molecular target: T13, OR1J4 (Homo sapiens) (UniProt Q8NGS1)
T13 sequence (whole entry): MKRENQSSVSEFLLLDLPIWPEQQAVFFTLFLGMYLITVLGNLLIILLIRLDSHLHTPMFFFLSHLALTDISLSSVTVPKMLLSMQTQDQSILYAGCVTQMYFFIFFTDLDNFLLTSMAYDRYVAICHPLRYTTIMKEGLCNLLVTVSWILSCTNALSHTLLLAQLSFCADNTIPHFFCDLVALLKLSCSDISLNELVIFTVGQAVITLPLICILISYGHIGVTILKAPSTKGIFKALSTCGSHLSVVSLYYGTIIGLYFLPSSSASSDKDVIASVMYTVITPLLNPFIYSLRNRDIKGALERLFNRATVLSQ
Outline: as §1

OR1K1 (Homo sapiens) = molecular target: T14, OR1K1 (Homo sapiens) (UniProt Q8NGR3)
T14 sequence (whole entry): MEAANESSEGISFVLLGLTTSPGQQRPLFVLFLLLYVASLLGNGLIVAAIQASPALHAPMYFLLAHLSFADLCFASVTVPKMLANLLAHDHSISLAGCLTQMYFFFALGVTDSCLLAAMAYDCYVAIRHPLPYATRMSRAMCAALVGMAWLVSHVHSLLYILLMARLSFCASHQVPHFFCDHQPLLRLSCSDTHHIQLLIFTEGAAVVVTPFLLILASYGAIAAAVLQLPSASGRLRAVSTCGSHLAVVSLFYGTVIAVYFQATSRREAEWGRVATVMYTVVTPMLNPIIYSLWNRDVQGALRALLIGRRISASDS
Outline: as §1

OR1D4 (Homo sapiens) = OR1D4 (Homo sapiens) (UniProt P47884)
Outline: as §1

OR1E1 (Homo sapiens) = OR1E1 (Homo sapiens) (UniProt P30953)
Outline: as §1

OR1I1 (Homo sapiens) = OR1I1 (Homo sapiens) (UniProt O60431)
Outline: as §1

OR1L1 (Homo sapiens) = OR1L1 (Homo sapiens) (UniProt Q8NH94)
Outline: as §1

SMILES | odorant receptor agonist call (OR1D5 (Homo sapiens)) | odorant receptor agonist call (OR1D5) | odorant receptor agonist call (OR1E1 [1]) | odorant receptor agonist call (OR1E1 [2]) | odorant receptor agonist call (OR1E2 (Homo sapiens)) | odorant receptor agonist call (OR1E2) | odorant receptor agonist call (OR1F1) | odorant receptor agonist call (OR1FC) | odorant receptor agonist call (OR1G1 (Homo sapiens)) | odorant receptor agonist call (OR1I1) | odorant receptor agonist call (OR1J1 (Homo sapiens)) | odorant receptor agonist call (OR1J2 (Homo sapiens)) | odorant receptor agonist call (OR1J4 (Homo sapiens)) | odorant receptor agonist call (OR1K1 (Homo sapiens)) | odorant receptor agonist call (OR1D4 (Homo sapiens)) | odorant receptor agonist call (OR1E1 (Homo sapiens)) | odorant receptor agonist call (OR1I1 (Homo sapiens)) | odorant receptor agonist call (OR1L1 (Homo sapiens))
CCCCCCCCCC=O | inactive | active | inactive | inactive | inactive | inactive | inactive | inactive | active | inactive | inactive | inactive | inactive | inactive | – | – | – | –
CCCCCCCC=O | inactive | inactive | inactive | inactive | inactive | inactive | inactive | inactive | active | inactive | inactive | inactive | inactive | inactive | – | – | – | –
C=CC(C)(O)CCC=C(C)C (configuration not stated) | inactive | inactive | inactive | inactive | inactive | inactive | inactive | inactive | inactive | inactive | inactive | inactive | inactive | inactive | – | – | – | –
COc1cc(C=O)ccc1O | inactive | inactive | inactive | inactive | inactive | inactive | inactive | inactive | active | inactive | inactive | inactive | inactive | inactive | – | – | – | –
CC(C)=CCCC(C)=CC=O | inactive | active | inactive | inactive | inactive | inactive | inactive | inactive | active | inactive | active | inactive | inactive | inactive | – | – | – | –
CC1COCc2cc3c(cc21)C(C)(C)C(C)C3(C)C (configuration not stated) | active | active | active | inactive | active | active | active | active | active | active | active | active | active | active | – | – | – | –
CC(C)C(=O)O | inactive | inactive | inactive | inactive | inactive | inactive | inactive | inactive | inactive | inactive | inactive | inactive | inactive | inactive | – | – | – | –
CC12C=CCC1C1CCC3CC(=O)CCC3(C)C1CC2 (configuration not stated) | inactive | inactive | inactive | inactive | inactive | inactive | inactive | inactive | inactive | inactive | inactive | inactive | inactive | inactive | inactive | inactive | inactive | inactive
CCCC(=O)O | inactive | inactive | inactive | inactive | inactive | inactive | inactive | active | inactive | inactive | inactive | inactive | inactive | inactive | – | – | – | –
CC12CCC(CC1)C(C)(C)O2 | inactive | inactive | inactive | inactive | inactive | inactive | inactive | inactive | inactive | inactive | inactive | inactive | inactive | inactive | – | – | – | –
CCCCCCCCOC(C)=O | inactive | inactive | inactive | inactive | inactive | inactive | inactive | inactive | inactive | inactive | inactive | inactive | inactive | inactive | – | – | – | –
CC(C)CC(=O)O | inactive | inactive | inactive | active | inactive | inactive | inactive | inactive | inactive | inactive | inactive | inactive | inactive | inactive | – | – | – | –

Individual results from above:
Value for `CCCC(=O)O` under odorant receptor agonist call (OR1F1): inactive
Value for `CC12C=CCC1C1CCC3CC(=O)CCC3(C)C1CC2` (configuration not stated) under odorant receptor agonist call (OR1FC): inactive
